In patent US20090191181A1:
Results are given in words; binding and its absence hold for the method and conditions named. Binding seen in cells or lysates may run through a third protein. Some binding calls cover weakened binding; strength is not graded here. For some assays here: Sequences can lack the tags named with a protein.

Legend:
[1] = molecular target: T1, RB1 (endogenous, in lysates of HepG2 or HCT116 cells) (human) (UniProt P06400); experiment: co-immunoprecipitation of endogenous proteins, immunoblot (FIG. 2a)
T1 sequence: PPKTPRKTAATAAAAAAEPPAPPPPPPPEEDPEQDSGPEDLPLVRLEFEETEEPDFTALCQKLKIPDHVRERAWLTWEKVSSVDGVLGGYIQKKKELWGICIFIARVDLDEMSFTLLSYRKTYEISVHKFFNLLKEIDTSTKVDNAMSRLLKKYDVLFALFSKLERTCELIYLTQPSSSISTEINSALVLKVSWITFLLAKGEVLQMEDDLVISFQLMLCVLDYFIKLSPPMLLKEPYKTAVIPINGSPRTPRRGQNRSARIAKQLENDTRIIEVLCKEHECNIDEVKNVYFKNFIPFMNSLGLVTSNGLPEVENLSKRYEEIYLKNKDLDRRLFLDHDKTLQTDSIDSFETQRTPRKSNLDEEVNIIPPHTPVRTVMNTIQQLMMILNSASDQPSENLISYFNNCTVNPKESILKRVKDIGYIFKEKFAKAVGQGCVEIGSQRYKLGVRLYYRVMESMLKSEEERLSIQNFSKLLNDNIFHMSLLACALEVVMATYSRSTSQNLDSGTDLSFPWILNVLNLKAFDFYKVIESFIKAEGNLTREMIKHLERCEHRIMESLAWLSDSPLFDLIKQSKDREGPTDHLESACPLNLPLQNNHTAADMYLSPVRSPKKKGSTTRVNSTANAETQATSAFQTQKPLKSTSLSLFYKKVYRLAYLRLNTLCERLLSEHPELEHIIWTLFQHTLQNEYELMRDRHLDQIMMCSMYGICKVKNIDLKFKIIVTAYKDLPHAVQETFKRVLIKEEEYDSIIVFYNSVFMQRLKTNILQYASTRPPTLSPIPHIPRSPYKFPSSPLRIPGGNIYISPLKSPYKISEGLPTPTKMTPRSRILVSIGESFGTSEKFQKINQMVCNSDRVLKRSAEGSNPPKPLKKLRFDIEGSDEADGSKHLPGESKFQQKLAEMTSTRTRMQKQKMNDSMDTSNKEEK

[2] = molecular target: T2, Flag-tagged RB1 C-terminal substrate domain (codons 772-928) (Homo sapiens (Human)) (UniProt P06400); experiment: co-immunoprecipitation with anti-Flag antibody from HEK293 cells (FIG. 2b)
T2 sequence: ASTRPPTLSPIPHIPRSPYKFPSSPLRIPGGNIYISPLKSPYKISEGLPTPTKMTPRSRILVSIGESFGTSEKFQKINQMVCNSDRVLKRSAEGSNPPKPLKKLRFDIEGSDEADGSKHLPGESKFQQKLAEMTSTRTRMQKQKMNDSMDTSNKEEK

B1: SMYD3 (endogenous, in lysates of HepG2 or HCT116 cells) (enzyme)
chain: MEPLKVEKFATANRGNGLRAVTPLRPGELLFRSDPLAYTVCKGSRGVVCDRCLLGKEKLMRCSQCRVAKYCSAKCQKKAWPDHKRECKCLKSCKPRYPPDSVRLLGRVVFKLMDGAPSESEKLYSFYDLESNINKLTEDKKEGLRQLVMTFQHFMREEIQDASQLPPAFDLFEAFAKVICNSFTICNAEMQEVGVGLYPSISLLNHSCDPNCSIVFNGPHLLLRAVRDIEVGEELTICYLDMLMTSEERRKQLRDQYCFECDCFRCQTQDKDADMLTGDEQVWKEVQESLKKIEELKAHWKWEQVLAMCQAIISSNSERLPDINIYQLKVLDCAMDACINLGLLEEALFYGTRTMEPYRIFFPGSHPVRGVQVMKVGKLQLHQGMFPQAMKNLRLAFDIMRVTHGREHSLIEDLILLLEECDANIRAS
- binding [1]: binds

B2: HA-tagged SMYD3 (wild type) (enzyme, not shown: small tags and cut ends)
chain: MEPLKVEKFATANRGNGLRAVTPLRPGELLFRSDPLAYTVCKGSRGVVCDRCLLGKEKLMRCSQCRVAKYCSAKCQKKAWPDHKRECKCLKSCKPRYPPDSVRLLGRVVFKLMDGAPSESEKLYSFYDLESNINKLTEDKKEGLRQLVMTFQHFMREEIQDASQLPPAFDLFEAFAKVICNSFTICNAEMQEVGVGLYPSISLLNHSCDPNCSIVFNGPHLLLRAVRDIEVGEELTICYLDMLMTSEERRKQLRDQYCFECDCFRCQTQDKDADMLTGDEQVWKEVQESLKKIEELKAHWKWEQVLAMCQAIISSNSERLPDINIYQLKVLDCAMDACINLGLLEEALFYGTRTMEPYRIFFPGSHPVRGVQVMKVGKLQLHQGMFPQAMKNLRLAFDIMRVTHGREHSLIEDLILLLEECDANIRAS
- binding [2]: binds
